Measurements reported in patent US20250215100A1.
Where a chain is given by its changes, count along the chain named. These are yes or no findings as the source states them, for the method shown. Some binding calls cover weakened binding; strength is not graded here. Blank lines part the entries; values can stand above or below the binder they belong to.

Molecular target: cynomolgus monkey CD40 on cells (cynomolgus monkey) (UniProt G7PG38)
Experiment: FACS, CHO-K1/cyCD40 cells

- binding: binds
B1: PR003379 (antibody, human IgG2, kappa)
heavy: QVQLVQSGAEVKKPGASVKVSCKASGYTFAGYYMYWVRQAPGQGLEWMGWINPDSGAPTYAQKFQGRVTMTRDTSISTAYMELSRLRSDDTAVYYCAREKIYYGSGNYYPSFDYWGQGTLVTVSSASTKGPSVFPLAPCSRSTSESTAALGCLVKDYFPEPVTVSWNSGALTSGVHTFPAVLQSSGLYSLSSVVTVPSSNFGTQTYTCNVDHKPSNTKVDKTVERKCCVECPPCPAPPVAGPSVFLFPPKPKDTLMISRTPEVTCVVVDVSHEDPEVQFNWYVDGVEVHNAKTKPREEQFNSTFRVVSVLTVVHQDWLNGKEYKCKVSNKGLPAPIEKTISKTKGQPREPQVYTLPPSREEMTKNQVSLTCLVKGFYPSDIAVEWESNGQPENNYKTTPPMLDSDGSFFLYSKLTVDKSRWQQGNVFSCSVMHEALHNHYTQKSLSLSPGK
light: DIQLTQSPSFLSASVGDRVTITCRASQGISSYLAWYQQKPGKAPKLLIYAASTLQSGVPSRFSGSGSGTEFTLTISSLQPEDFATYYCQQLNSYPWTFGQGTKVEIKRTVAAPSVFIFPPSDEQLKSGTASVVCLLNNFYPREAKVQWKVDNALQSGNSQESVTEQDSKDSTYSLSSTLTLSKADYEKHKVYACEVTHQGLSSPVTKSFNRGEC

- binding: binds
B2: PR006492 (antibody, human IgG1, kappa, V domains shown)
VH: QVQLVQSGAEVKKPGASVKVSCKASGYTFAGYYMYWVRQAPGQGLEWMGWINPDSGAPTYAQKFQGRVTMTRDTSISTAYMELSRLRSDDTAVYYCAREKIYYGSGNYYPSFDYWGQGTLVTVSS
VL: DIQLTQSPSFLSASVGDRVTITCRASQGISSYLAWYQQKPGKAPKLLIYAASTLQSGVPSRFSGSGSGTEFTLTISSLQPEDFATYYCQQLESYPWTFGQGTKVEIKR

- binding: binds
B3: PR006511 (antibody, human IgG1, kappa, V domains shown)
VH: B2 VH
VL: B2 VL with E92N, S93N

- binding: binds
B4: PR006499 (antibody, human IgG1, kappa, V domains shown)
VH: B2 VH
VL: B2 VL with E92W

- binding: binds
B5: PR006515 (antibody, human IgG1, kappa, V domains shown)
VH: B2 VH
VL: B2 VL with E92N, S93M

- binding: binds
B6: PR006504 (antibody, human IgG1, kappa, V domains shown)
VH: B2 VH
VL: B2 VL with E92V

- binding: binds
B7: PR006516 (antibody, human IgG1, kappa, V domains shown)
VH: B2 VH
VL: B2 VL with E92N, S93H

- binding: binds
B8: PR006509 (antibody, human IgG1, kappa, V domains shown)
VH: B2 VH
VL: B2 VL with E92N, S93L

- binding: binds
B9: PR006502 (antibody, human IgG1, kappa, V domains shown)
VH: B2 VH
VL: B2 VL with E92D

- binding: binds
B10: PR006495 (antibody, human IgG1, kappa, V domains shown)
VH: B2 VH
VL: B2 VL with E92A

- binding: binds
B11: PR006500 (antibody, human IgG1, kappa, V domains shown)
VH: B2 VH
VL: B2 VL with E92M

- binding: binds
B12: PR006493 (antibody, human IgG1, kappa, V domains shown)
VH: B2 VH
VL: B2 VL with E92L

- binding: binds
B13: PR006506 (antibody, human IgG1, kappa, V domains shown)
VH: B2 VH
VL: B2 VL with E92N, S93F

- binding: binds
B14: PR006505 (antibody, human IgG1, kappa, V domains shown)
VH: B2 VH
VL: B2 VL with E92N, S93I

- binding: binds
B15: PR006514 (antibody, human IgG1, kappa, V domains shown)
VH: B2 VH
VL: B2 VL with E92N, S93V

- binding: binds
B16: PR006501 (antibody, human IgG1, kappa, V domains shown)
VH: B2 VH
VL: B2 VL with E92Q

- binding: binds
B17: PR006510 (antibody, human IgG1, kappa, V domains shown)
VH: B2 VH
VL: B2 VL with E92N, S93R

- binding: binds
B18: PR006512 (antibody, human IgG1, kappa, V domains shown)
VH: B2 VH
VL: B2 VL with E92N, S93T

- binding: binds
B19: PR006513 (antibody, human IgG1, kappa, V domains shown)
VH: B2 VH
VL: B2 VL with E92N, S93Q

- binding: binds
B20: PR006498 (antibody, human IgG1, kappa, V domains shown)
VH: B2 VH
VL: B2 VL with E92I

- binding: binds
B21: PR006503 (antibody, human IgG1, kappa, V domains shown)
VH: B2 VH
VL: B2 VL with E92G

- binding: binds
B22: PR006507 (antibody, human IgG1, kappa, V domains shown)
VH: B2 VH
VL: B2 VL with E92N, S93E

- binding: binds
B23: PR006496 (antibody, human IgG1, kappa, V domains shown)
VH: B2 VH
VL: B2 VL with E92F

- binding: binds
B24: PR006497 (antibody, human IgG1, kappa, V domains shown)
VH: B2 VH
VL: B2 VL with E92Y

- binding: binds
B25: PR006494 (antibody, human IgG1, kappa, V domains shown)
VH: B2 VH
VL: B2 VL with E92T
